The text below walks through data of article PMC4746625.

Sequences of proteins named here, by UniProt entry; tags and fusion partners are left off. A change or cut given only in a name is not applied to a line headed by its entry.
UniProt Q91Z31: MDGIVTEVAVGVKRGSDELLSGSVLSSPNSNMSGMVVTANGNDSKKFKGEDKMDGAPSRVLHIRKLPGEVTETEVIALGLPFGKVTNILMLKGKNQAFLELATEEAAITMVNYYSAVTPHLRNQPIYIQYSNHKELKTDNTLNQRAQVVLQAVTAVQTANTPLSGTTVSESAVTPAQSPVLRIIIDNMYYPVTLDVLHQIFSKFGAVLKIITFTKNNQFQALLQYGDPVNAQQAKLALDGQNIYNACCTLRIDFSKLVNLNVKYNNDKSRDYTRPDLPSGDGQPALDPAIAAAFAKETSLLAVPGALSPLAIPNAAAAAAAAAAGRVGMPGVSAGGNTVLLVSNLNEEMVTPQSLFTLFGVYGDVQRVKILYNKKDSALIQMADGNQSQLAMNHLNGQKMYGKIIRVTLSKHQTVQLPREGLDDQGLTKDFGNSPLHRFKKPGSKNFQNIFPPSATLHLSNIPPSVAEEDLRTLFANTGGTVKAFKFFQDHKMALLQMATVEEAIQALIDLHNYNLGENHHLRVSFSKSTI

The exact form of at least one protein or probe is not confirmed. Negatives hold for the conditions tested.

This data set has as its target PTBP2 (nPTB) (UniProt Q91Z31). As to the kind of experiment: EMSA. Particulars: 2 ug protein, 10 nM probe, 5 mM Mg2+, tRNA; 10 mM HEPES pH 7.9, 50 uM EDTA, 10% glycerol, 1 mM DTT, 5 mM MgCl2, 0.5 ug/ml BSA, 12.5 ng/ml tRNA, 15 min, room temperature; 8% native PAGE in TBE; recombinant protein; protein details: His; label: DIG; probe letters rebuilt from the primers and the genome; part of a longer molecule. In general terms: Mobility shift assays separate free from complexed probe on a gel.

Take “AAGCCUGCCAUUUUACCAGCAUUAUUGUAGUUUAAUGAUUGAAUGUAGACAGGGAUAUGCGUAUAGUUUUCAGUAUUAGUUCUAGAUAACACUAAAUUAACUACUGUUAGGUUGAGUAUGGUGGGGUCAG [Nova1 3'UTR F3]”: the binding result was “no binding”.
Under “GAGUGUCCCCAUUAUACGUCAGAGUGUUUUAACCCCUCCUUUGCCCCAUUUGGAAGAAGGAUGUACUGUACUUUGCAGAAGUGAAGUUUUUCUGUUAUUAAUAUAUAAUUAUGCAAAUGAAUGCGACUAUG [Nova1 3'UTR F1]” stands “binds”; under “GAGUGUCCCCAUUAUACGUCAGAGUGUUUUAACCCCUGGUUUGCCCCAUUUGGAAGAAGGAUGUACUGUACUUUGCAGAAGUGAAGUUUUUCUGUUAUUAAUAUAUAAUUAUGCAAAUGAAUGCGACUAUG [Nova1 3'UTR mF1 (UCCU, CC to GG)]”, “no binding”.
